# Assay results reported in the supplement of paper PMC3334620.
# Whole data set: some 33,000 sequences, median “E-score (-0.5 to 0.5)” near -0.016, cut for the highest 2% near 0.3. The list shows a part of the results.
# Molecular target: T1, Yer184c (UniProt P39961)
# T1 sequence: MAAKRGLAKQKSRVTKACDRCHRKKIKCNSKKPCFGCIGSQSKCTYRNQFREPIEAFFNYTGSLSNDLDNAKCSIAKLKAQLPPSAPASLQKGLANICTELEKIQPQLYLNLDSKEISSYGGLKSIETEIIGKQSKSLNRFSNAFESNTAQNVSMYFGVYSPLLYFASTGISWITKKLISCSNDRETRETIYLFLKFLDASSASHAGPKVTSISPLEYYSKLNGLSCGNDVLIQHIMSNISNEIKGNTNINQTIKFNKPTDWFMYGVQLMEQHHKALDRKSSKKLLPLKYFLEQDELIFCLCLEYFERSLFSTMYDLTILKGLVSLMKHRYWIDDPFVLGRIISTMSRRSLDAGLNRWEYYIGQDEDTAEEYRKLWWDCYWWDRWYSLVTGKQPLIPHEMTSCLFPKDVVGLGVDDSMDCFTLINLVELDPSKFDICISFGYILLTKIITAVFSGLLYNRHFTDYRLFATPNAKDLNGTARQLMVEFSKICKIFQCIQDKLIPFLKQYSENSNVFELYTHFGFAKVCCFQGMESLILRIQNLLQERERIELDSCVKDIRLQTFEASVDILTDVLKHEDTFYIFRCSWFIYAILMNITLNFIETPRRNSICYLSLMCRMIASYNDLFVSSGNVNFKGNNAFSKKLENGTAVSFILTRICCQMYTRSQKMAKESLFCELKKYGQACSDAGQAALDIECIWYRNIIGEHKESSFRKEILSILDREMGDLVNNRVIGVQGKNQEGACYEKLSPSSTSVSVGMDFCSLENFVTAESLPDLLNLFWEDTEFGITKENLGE
# Test: PBM E-score (8-mer binding enrichment) (E-score (-0.5 to 0.5)); higher = stronger / more preferred TF binding
# Conditions: protein concentration: 100 nM; construct: GST-full length
# Procedure, shortened: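 Yeast transcription factors carrying a GST tag, as full-length proteins or DNA-binding domains, were produced by PURExpress in vitro transcription/translation. About 100-200 nM protein was applied to universal all-10-mer Agilent arrays, double-stranded by primer extension on fresh or once-stripped slides. Bound protein was detected with fluorescent anti-GST, and scans were normalised with masliner. The Universal PBM Analysis Suite gave each ungapped eight-base word, pooled with its reverse complement, an E-score, a modified Wilcoxon-Mann-Whitney statistic.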
row,Sequence,PBM E-score
1,GCAGCCGA,0.221
2,ATCATATC,0.139
3,GACAATGA,-0.0278
4,AGAGAGAA,-0.111
5,AAAAGGCC,-0.0759
6,CTGATGGA,-0.14
7,CAATAAAA,0.0818
8,CCGGCTGC,0.331
9,AATCTCTG,-0.102
10,AAAGCTTT,0.237
11,AAAACAGT,0.197
12,ACAGCCCG,0.0446
13,ATAGTCTC,0.0321
14,AGTACGGA,0.158
15,ACTCAGAC,-0.00195
16,AGTCTGAA,-0.162
17,ACGCCTTG,-0.119
18,CCGTTATA,0.151
19,ACACAGAG,-0.0748
20,AGGACAAT,-0.0447
21,GATAGCAA,0.123
22,ATGCATTA,0.0989
23,ACTGAGCC,0.142
24,CTGTAGAA,0.0848

row,Sequence,PBM E-score
1,AGAGGAAA,0.191
2,GAGTCAGA,-0.0741
3,ACTAACAG,0.045
4,AACTCCGA,0.325
5,AAAAACGG,0.183
6,CCAATTAA,0.0256
7,AGTGTTAA,0.213
8,ACAATCCG,0.193
9,GGTAAAAC,0.05
10,ATGGAGGA,0.1
11,GAGGCCTA,-0.155
12,AGGGCGCA,-0.225
13,CTGAGCGA,0.02
14,CACGTATC,-0.167
15,CAGGGTCA,-0.288
16,CAGAGAGA,-0.123
17,ATAACTGG,-0.0953
18,GAAGGAGA,-0.0715
19,AAATCCAA,-0.0273
20,GGAGAACA,-0.0373
21,CAAACCTG,-0.11
22,CTAGCAAG,-0.206
23,ACCACCAC,-0.159
24,AGCTAAGG,-0.178

# Rewritten bar-delimited: entries from further up.
row | Sequence | PBM E-score
12 | ACAGCCCG | 0.0446
13 | ATAGTCTC | 0.0321
14 | AGTACGGA | 0.158
15 | ACTCAGAC | -0.00195

# Later entries.

row,Sequence,PBM E-score
1,AGAAATTC,0.077
2,AAATCGCA,0.0999
3,GCAGATTA,0.0406
4,CAGTGCCG,0.22
5,AATTATTC,0.181
6,CGGGGTAG,-0.126
7,CAAGGTGG,-0.0765
8,CACAACGA,0.115
9,CCTTGTGA,-0.0408
10,CGCTGCCC,-0.121
11,CGGTTTCA,0.137
12,GACTAGAA,-0.023
13,ATCGGCGG,0.246
14,CTTGGGTA,-0.087
15,CGGACCCC,0.0811
16,ACATCAGC,-0.0768
17,GACTCACC,-0.216
18,GCCACTCA,-0.0368
19,TATAGGAA,-0.0613
20,CTTCGAAC,0.192
21,GTATCAGA,0.0461
22,GGACTGCA,-0.141
23,CAGTTGTC,-0.00115
24,AGCCTGCG,-0.175

row,Sequence,PBM E-score
1,ATGTCAAT,0.122
2,GTCCCCAC,-0.359
3,GAGTGGTA,-0.0683
4,AATCGAAC,-0.112
5,ACGTGCCT,-0.058
6,ATTTGGGA,0.0419
7,AAACTAAT,0.3
8,GTTACAAC,0.126
9,ATCTTCGG,0.35
10,ATCCCATC,-0.19
11,ATCAAAGA,0.0474
12,GATTCGGC,0.364
13,CCCTAGAG,-0.0187
14,GCCTATCC,-0.156
15,TAACGACA,-0.0182
16,GTAGCTCA,0.0156
17,AGGATGGA,0.0163
18,AGTACCCC,-0.267
19,ATTGCAAT,0.126
20,ATCGACAA,0.185
21,GGATAACA,0.0419
22,ACGTTCAA,0.0105
